# Source: PubChem BioAssay AID540276 (National Center for Advancing Translational Sciences (NCATS), 2011)
# Values joined by “and” are separate entries in the source; they are usually repeats but may differ in a detail not shown here. Identical values can stand only once. In all, about 300,000 compounds went through this assay and about 5,400 (1.8%) were called active. The shares of active, inactive and inconclusive entries below differ from those in the screen. Calls come from the whole dose curve; tested in HEK293 cells. A potency beside an inconclusive call is a rough fit, not a confirmed value.
# Experiment: qHTS for inhibitors of binding or entry into cells for Marburg Virus
# Conditions: Marburg virus pseudotyped entry inhibition, cell reporter; series mostly up to 37.8 µM
# Potency is the fitted concentration of half-maximal effect.
row,SMILES,Potency
1,Cc1nc(CN2CCN(Cc3nc(C(c4ccccc4)c4ccccc4)no3)CC2)cs1,inactive
2,Cn1nc(C(F)(F)F)c(C#N)c1N1CCN(c2ccc(F)cc2)CC1,inactive
3,O=C(NCc1ccccn1)c1ccc([N+](=O)[O-])cc1,"inconclusive: 3.16 µM [activator, single point]"
4,CC(C)N(CC(N)=O)c1ncnc2sc(-c3ccccc3)cc12,"inconclusive: 3.98 µM [inhibitor, full curve, poor fit]"
5,CCN1C=CC2=C(C#N)C(N)C(C#N)(C#N)C(c3ccccc3C(F)(F)F)C2C1 (centres undefined),inactive
6,CCOc1cccc(CN2CCCC(C(=O)c3cccc(C(F)(F)F)c3)C2)c1O (centres undefined),"inconclusive: 8.91 µM [inhibitor, partial curve, poor fit]"
7,C/C(=N\NC(=O)c1ccc(CSc2nncn2C)cc1)c1ccc(Cl)cc1,"inconclusive: 6.31 µM [activator, full curve, poor fit]"
8,O=C(NCc1nnc2c3ccccc3c(-c3ccccc3)nn12)c1ccccc1Cl,"inconclusive: 5.62 µM [inhibitor, single point]"
9,O=C1CC(N(O)C2CC(=O)N(Cc3ccccc3)C2=O)C(=O)N1Cc1ccccc1 (centres undefined),"inconclusive: 0.112 µM [activator, partial curve, poor fit]"
10,Cc1ccc(CONC(=O)c2ccc(OC(F)F)cc2)cc1,"inconclusive: 35.5 µM [activator, single point]"
11,O=c1cc(CO)oc(CN2CCN(c3ccccc3)CC2)c1O,"inconclusive: 0.501 µM [inhibitor, partial curve, poor fit]"
12,C=CCn1c(SCC(N)=O)nnc1-c1cccc(Br)c1,inactive
13,O=C(O)c1cnn(-c2nc(-c3ccc(F)cc3)cs2)c1C(F)(F)F,"inconclusive: 1 µM [activator, full curve, poor fit]"
14,CC(C)C(Cl)=NOC(=O)Nc1ccc(S(N)(=O)=O)cc1,"inconclusive: 35.5 µM [inhibitor, single point]"
15,O=S(=O)(C=C(c1ccccc1)c1ccccc1)c1ccccc1,inactive
16,CC(C)(C)c1ccc(C(=O)N2CCCC(c3nc4c(nnn4Cc4cccc(F)c4)c(=O)[nH]3)C2)cc1 (centres undefined),inactive
17,CCCCOc1ccccc1C(=O)N(Cc1sccc1C)C1CCS(=O)(=O)C1 (centres undefined),inactive
18,CCn1c(=O)cc(SCC(=O)Nc2ccc(OC)c(OC)c2)c2ccccc21,"inconclusive: 16.4 µM [inhibitor, single point]"
19,CCN(CC)c1ccc(NC(=O)COc2ccc(-n3cnnn3)cc2)cc1,inactive
20,Cc1cc(Oc2ccccc2)nc(NCc2ccccc2)n1,"inconclusive: 35.5 µM [inhibitor, single point]"
21,CCCN(CCC)C(=O)CC(c1ccccc1)c1cc(C)ccc1O (centres undefined),"inconclusive: 25.9 µM [inhibitor, partial curve]"
22,CCN(CC)CC(=O)NCc1cc(-c2ccc(OC)cc2)no1,"inconclusive: 15.8 µM [activator, single point]"
23,COc1ccc(C(=O)NCC2(c3ccccc3)CCOCC2)cc1[N+](=O)[O-],"inconclusive: 3.16 µM [inhibitor, partial curve, poor fit]"

row,SMILES,Potency
1,O=C(Nc1ccccc1-c1ccccc1)c1ccc(NC(=O)c2ccco2)cc1,inactive
2,c1ccc2c(c1)OCC(C1=NCCN1)O2 (centres undefined),"inactive and inconclusive: 12.6 µM [inhibitor, partial curve] and inconclusive: 5.8 µM [inhibitor, full curve, poor fit]"
3,COc1ccc2nc(NC(=O)CN(c3ccc(C)cc3)S(=O)(=O)c3c(C)nn(C)c3C)sc2c1,"inconclusive: 25.9 µM [inhibitor, partial curve, poor fit]"
4,O=C(NCC1CCN(Cc2cccc(Cl)c2)CC1)Nc1ccc(F)c(Cl)c1,"inconclusive: 35.5 µM [inhibitor, single point]"
5,CC(C)OCCCN1C(=O)c2[nH]nc(-c3ccccc3O)c2C1c1ccccc1F (centres undefined),"inconclusive: 0.562 µM [activator, partial curve, poor fit]"
6,CC1Cc2ccccc2N1C(=S)Nc1cccc(S(=O)(=O)N(C)C)c1 (centres undefined),"inconclusive: 5.62 µM [inhibitor, partial curve, poor fit]"
7,Cc1noc(-c2ccccc2OCC(=O)Nc2ccccc2[N+](=O)[O-])n1,inactive
8,CCOc1ccccc1N1CC(c2nc3ccccc3n2CCCOc2ccc(OC)cc2)CC1=O (centres undefined),"inconclusive: 35.5 µM [inhibitor, single point]"
9,O=C(N/N=C/c1ccc2c(c1)OCO2)c1cccnc1,inactive
10,Cc1cc(C(=O)CCl)c(C)n1-c1c(C)n(C)n(-c2ccccc2)c1=O,"inconclusive: 7.08 µM [inhibitor, full curve, poor fit]"
11,O=C(N1CCN(c2cccc(Cl)c2)CC1)C1(c2cccs2)CCOCC1,"inconclusive: 12.6 µM [inhibitor, partial curve, poor fit]"
12,CCc1ccc(C(=O)CC2(O)C(=O)N(Cc3ccc(C)cc3)c3ccccc32)cc1 (centres undefined),inactive
13,CCN(CC)C(=O)c1oc2ccc(S(=O)(=O)N3CCCCCC3)cc2c1C,"inconclusive: 20.6 µM [inhibitor, single point]"
14,Cc1cc(N/N=C/c2ccccc2Br)nc2ccccc12,"inconclusive: 35.5 µM [inhibitor, single point]"
15,Cc1ccc(-n2c(CCC(=O)O)ccc2-c2cccs2)cc1Cl,"inconclusive: 12.6 µM [activator, single point]"
16,N#C/C(=N/Nc1ccccc1F)C(=N)N1CCOCC1,inactive
17,CCCS(=O)(=O)N1CCCC(C(=O)NCc2ccc3c(c2)OCO3)C1 (centres undefined),"inconclusive: 5.62 µM [inhibitor, single point]"
18,Cn1c(Cc2c[nH]c3ccccc23)n[nH]c1=S,inactive
19,CCCC[C@]12Cc3c(ccc4ccccc34)[C@H](O1)C1=C(O2)C(=O)c2ccccc2C1=O,inactive
20,CCCCCC1CCC(C(=O)NCCN2CCOCC2)CC1 (centres undefined),"inconclusive: 28.2 µM [activator, single point]"
21,COc1ccc(/C=C/C(=O)Nc2ccccc2F)cc1S(=O)(=O)N1CCOCC1,"inconclusive: 25.1 µM [inhibitor, single point]"
22,CNC(=S)N=Nc1c(O)[nH]c2ccc(C(C)C)cc12,"inconclusive: 35.5 µM [inhibitor, single point]"
23,C/C(=N\NC(=O)c1ccco1)c1ccc(-c2ccccc2)cc1,"inconclusive: 3.16 µM [activator, partial curve, poor fit]"

row,SMILES,Potency
1,CCC(C)(C)n1nnnc1CN1CCN(C(c2ccccc2)c2ccccc2)CC1,inactive
2,CNC(=O)/C(=C/c1ccc2c(c1)OCO2)NC(=O)c1ccc(Br)cc1,"inconclusive: 35.5 µM [activator, single point]"
3,COc1ccccc1N(CC(=O)NCC1CCCO1)C(=O)CCC(=O)Nc1nccs1 (centres undefined),inactive
4,Cc1ccc(C(=O)CSc2nnc(COc3cccc4cccnc34)o2)cc1,inactive
5,COc1ccc(-c2cc(CNS(=O)(=O)c3ccccc3)on2)cc1,"inconclusive: 20 µM [inhibitor, partial curve, poor fit]"
6,CN1CCN(C2=C(Cl)C(=O)N(c3ccc(Cl)cc3)C2=O)CC1,inactive
7,CC(C)Oc1ccc(C(=O)N(Cc2ccc(N(C)C)cc2)Cc2ccco2)cc1,inactive
8,COC(=O)Cc1ccc(NC(=O)c2ccccc2Cl)cc1,"inconclusive: 3.55 µM [inhibitor, single point]"
9,O=C(c1cc2sccc2n1Cc1ccc(F)cc1)N1CCCc2ccccc21,"inconclusive: 35.5 µM [inhibitor, single point]"
10,O=C(Nc1nc2ccc(F)cc2s1)c1ccccn1,"inconclusive: 1.12 µM [inhibitor, full curve, poor fit]"
11,Cc1ccc(C(=O)OCC(=O)Nc2ccc3c(c2)OCO3)cc1S(=O)(=O)N1CCOCC1,inactive
12,Cc1ccc(S(=O)(=O)N2CCCCC2)cc1NC(=O)c1ccc2ccccc2n1,"inconclusive: 25.1 µM [activator, single point]"
13,Cc1nn(C(C)C(=O)NC2CC2)c(=O)c2nn(-c3ccccc3)c(C)c12 (centres undefined),inactive
14,CCOC(=O)c1oc2c(c1C)-c1nn(Cc3cccc(Cl)c3)cc1CC2,inactive
15,Cc1csc(=O)n1CCC(=O)OCC(=O)c1c(N)n(CC(C)C)c(=O)n(C)c1=O,"inconclusive: 2.24 µM [inhibitor, full curve, poor fit]"
16,COc1ccccc1NC(=O)CSc1nc(SC)ns1,"inconclusive: 6.31 µM [activator, single point]"
17,COc1ccc(C(=O)C2CCCN(Cc3ccc4nonc4c3)C2)c(OC)c1 (centres undefined),"inconclusive: 17.8 µM [inhibitor, partial curve, poor fit]"
18,Cc1ccsc1[C@H]1NC(=O)c2c(sc3c2CCCC3)N1,"inconclusive: 6.31 µM [activator, single point]"
19,O=C(CN1CCOCC1)Nc1nc(-c2ccc3c(c2)CCN3S(=O)(=O)c2ccccc2)cs1,"inactive and inconclusive: 11.2 µM [inhibitor, partial curve]"
20,CCC(=O)Nc1ccc(-c2nnc(SCC(=O)NC[C@H]3CCCO3)n2C)cc1,inactive
21,Cc1ccc(NC(=O)C(=O)N2CCCC2)cc1Cl,inactive
22,S=C(Nc1cc(Cl)cc(Cl)c1)N1CCN(c2ccccn2)CC1,"inconclusive: 35.5 µM [inhibitor, partial curve, poor fit]"
23,CN(C)C(=O)Oc1ccc(OCc2nc3ccccc3[nH]2)cc1,"inconclusive: 14.1 µM [inhibitor, partial curve, poor fit]"
